Reference: publication PMC11612967
These are yes or no findings as the source states them, for the method shown. Binding seen in cells or lysates may run through a third protein. Some binding calls cover weakened binding; strength is not graded here.

Key:
Experiment in all cases: pull-down; S. pombe Smc5/6 subunits co-expressed in Sf9 cells by baculovirus, one subunit tagged (N- or C-terminal); pellets processed as for the small-scale expression in E. coli; single affinity step; Coomassie-stained SDS-PAGE
S. pombe Nse1 (S. pombe) = target: T1, S. pombe Nse1 (S. pombe) (UniProt Q53EK2)
T1 sequence: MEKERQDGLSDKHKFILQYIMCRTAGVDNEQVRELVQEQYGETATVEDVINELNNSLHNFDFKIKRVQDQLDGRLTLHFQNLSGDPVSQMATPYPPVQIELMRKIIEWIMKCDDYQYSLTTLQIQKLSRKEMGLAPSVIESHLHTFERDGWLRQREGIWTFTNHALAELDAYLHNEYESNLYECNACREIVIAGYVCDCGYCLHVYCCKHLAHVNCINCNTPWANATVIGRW

S. pombe Nse4 (S. pombe) = target: T2, S. pombe Nse4 (S. pombe) (UniProt Q6BDR8)
T2 sequence: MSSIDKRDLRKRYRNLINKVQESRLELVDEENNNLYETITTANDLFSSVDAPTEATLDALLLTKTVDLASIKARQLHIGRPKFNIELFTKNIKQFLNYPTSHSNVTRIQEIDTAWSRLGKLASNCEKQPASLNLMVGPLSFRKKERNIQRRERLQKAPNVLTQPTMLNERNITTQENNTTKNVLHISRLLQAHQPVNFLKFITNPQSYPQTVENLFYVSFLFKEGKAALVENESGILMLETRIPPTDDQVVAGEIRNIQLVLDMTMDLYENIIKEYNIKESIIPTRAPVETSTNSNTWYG

S. pombe Nse2 (S. pombe) = target: T3, S. pombe Nse2 (S. pombe) (UniProt Q4PIR3)
T3 sequence: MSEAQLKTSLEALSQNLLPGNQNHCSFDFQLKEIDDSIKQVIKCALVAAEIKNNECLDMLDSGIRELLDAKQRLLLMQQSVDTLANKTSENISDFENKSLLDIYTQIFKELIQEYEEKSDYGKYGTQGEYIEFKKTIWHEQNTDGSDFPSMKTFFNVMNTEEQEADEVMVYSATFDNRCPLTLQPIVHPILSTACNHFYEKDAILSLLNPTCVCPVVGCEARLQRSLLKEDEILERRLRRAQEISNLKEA

S. pombe Nse3 (S. pombe) = target: T4, S. pombe Nse3 (S. pombe) (UniProt Q9Y7U4)
T4 sequence: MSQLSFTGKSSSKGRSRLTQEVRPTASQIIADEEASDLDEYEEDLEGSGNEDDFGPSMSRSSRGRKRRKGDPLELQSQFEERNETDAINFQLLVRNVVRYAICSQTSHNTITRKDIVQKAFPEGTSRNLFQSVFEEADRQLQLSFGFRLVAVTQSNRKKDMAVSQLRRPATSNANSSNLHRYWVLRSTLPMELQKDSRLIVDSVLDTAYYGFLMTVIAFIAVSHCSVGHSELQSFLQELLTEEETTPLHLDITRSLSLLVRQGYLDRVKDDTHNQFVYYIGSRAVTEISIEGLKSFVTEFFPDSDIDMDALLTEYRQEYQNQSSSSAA

binding (S. pombe Nse1 (S. pombe)): binds
binding (S. pombe Nse4 (S. pombe)): binds
binding (S. pombe Nse2 (S. pombe)): binds
binding (S. pombe Nse3 (S. pombe)): binds
B1: S. pombe Smc6 (protein, UniProt P53692 1-1140)
chain: MTTELTNVSLEEAITEKTSENRRKRDSDVLQTEEVDLSNVKRIRASRNQDNRPERQSRLQRSSSLIEQVRGNEDGENDVLNQTRETNSNFDNRVGVIECIHLVNFMCHDSLKINFGPRINFVIGHNGSGKSAILTGLTICLGAKASNTNRAPNMKSLVKQGKNYARISVTISNRGFEAYQPEIYGKSITIERTIRREGSSEYRLRSFNGTVISTKRDELDNICDHMGLQIDNPMNILTQDTARQFLGNSSPKEKYQLFMKGIQLKQLEENYSLIEQSLINTKNVLGNKKTGVSYLAKKEEEYKLLWEQSRETENLHNLLEQKKGEMVWAQVVEVEKELLLAEKEFQHAEVKLSEAKENLESIVTNQSDIDGKISSKEEVIGRAKGETDTTKSKFEDIVKTFDGYRSEMNDVDIQKRDIQNSINAAKSCLDVYREQLNTERARENNLGGSQIEKRANESNNLQREIADLSEQIVELESKRNDLHSALLEMGGNLTSLLTKKDSIANKISDQSEHLKVLEDVQRDKVSAFGKNMPQLLKLITRETRFQHPPKGPMGKYMTVKEQKWHLIIERILGNVINGFIVRSHHDQLILKELMRQSNCHATVVVGKYDPFDYSSGEPDSQYPTVLKIIKFDDDEVLHTLINHLGIEKMLLIEDRREAEAYMKRGIANVTQCYALDPRNRGYGFRIVSTQRSSGISKVTPWNRPPRIGFSSSTSIEAEKKILDDLKKQYNFASNQLNEAKIEQAKFKRDEQLLVEKIEGIKKRILLKRREVNSLESQELSVLDTEKIQTLERRISETEKELESYAGQLQDAKNEEHRIRDNQRPVIEEIRIYREKIQTETQRLSSLQTELSRLRDEKRNSEVDIERHRQTVESCTNILREKEAKKVQCAQVVADYTAKANTRCERVPVQLSPAELDNEIERLQMQIAEWRNRTGVSVEQAAEDYLNAKEKHDQAKVLVARLTQLLQALEETLRRRNEMWTKFRKLITLRTKELFELYLSQRNFTGKLVIKHQEEFLEPRVYPANRNLATAHNRHEKSKVSVQGLSGGEKSFATICMLLSIWEAMSCPLRCLDEFDVFMDAVNRLVSIKMMVDSAKDSSDKQFIFITPQDMGQIGLDKDVVVFRLSDPVVSSSALPPSTAP
